Source: paper PMC9426605

B1: T25-PBP1_(ΔPASTA): S. aureus PBP1 without the PASTA domains (M1-S595) (domain or fragment, UniProt Q2FZ94 1-595)
chain: MAKQKIKIKKNKIGAVLLVGLFGLLFFILVLRISYIMITGHSNGQDLVMKANEKYLVKNAQQPERGKIYDRNGKVLAEDVERYKLVAVIDKKASANSKKPRHVVDKKETAKKLSTVINMKPEEIEKRLSQKKAFQIEFGRKGTNLTYQDKLKIEKMNLPGISLLPETERFYPNGNFASHLIGRAQKNPDTGELKGALGVEKIFDSYLSGSKGSLRYIHDIWGYIAPNTKKEKQPKRGDDVHLTIDSNIQVFVEEALDGMVERYQPKDLFAVVMDAKTGEILAYSQRPTFNPETGKDFGKKWANDLYQNTYEPGSTFKSYGLAAAIQEGAFDPDKKYKSGHRDIMGSRISDWNRVGWGEIPMSLGFTYSSNTLMMHLQDLVGADKMKSWYERFGFGKSTKGMFDGEAPGQIGWSNELQQKTSSFGQSTTVTPVQMLQAQSAFFNDGNMLKPWFVNSVENPVSKRQFYKGQKQIAGKPITKDTAEKVEKQLDLVVNSKKSHAANYRIDGYEVEGKTGTAQVAAPNGGGYVKGPNPYFVSFMGDAPKKNPKVIVYAGMSLAQKNDQEAYELGVSKAFKPIMENTLKYLNVGKSKDDTS
B2: Penicillin-binding protein 1 (PBP1) of Staphylococcus aureus, T25 fusion (enzyme, UniProt Q2FZ94 1-744)
chain: MAKQKIKIKKNKIGAVLLVGLFGLLFFILVLRISYIMITGHSNGQDLVMKANEKYLVKNAQQPERGKIYDRNGKVLAEDVERYKLVAVIDKKASANSKKPRHVVDKKETAKKLSTVINMKPEEIEKRLSQKKAFQIEFGRKGTNLTYQDKLKIEKMNLPGISLLPETERFYPNGNFASHLIGRAQKNPDTGELKGALGVEKIFDSYLSGSKGSLRYIHDIWGYIAPNTKKEKQPKRGDDVHLTIDSNIQVFVEEALDGMVERYQPKDLFAVVMDAKTGEILAYSQRPTFNPETGKDFGKKWANDLYQNTYEPGSTFKSYGLAAAIQEGAFDPDKKYKSGHRDIMGSRISDWNRVGWGEIPMSLGFTYSSNTLMMHLQDLVGADKMKSWYERFGFGKSTKGMFDGEAPGQIGWSNELQQKTSSFGQSTTVTPVQMLQAQSAFFNDGNMLKPWFVNSVENPVSKRQFYKGQKQIAGKPITKDTAEKVEKQLDLVVNSKKSHAANYRIDGYEVEGKTGTAQVAAPNGGGYVKGPNPYFVSFMGDAPKKNPKVIVYAGMSLAQKNDQEAYELGVSKAFKPIMENTLKYLNVGKSKDDTSNAEYSKVPDVEGQDKQKAIDNVSAKSLEPVTIGSGTQIKAQSIKAGNKVLPHSKVLLLTDGDLTMPDMSGWTKEDVIAFENLTNIKVNLKGSGFVSHQSISKGQKLTEKDKIDVEFSSENVDSNSTNNSDSNSDDKKKSDSKTDKDKSD

Molecular target: DivIC (S. aureus)
Assay: two-hybrid; bacterial two-hybrid, pKT25 and pUT18 derivatives cotransformed in E. coli BTH101, 30°C, 0.5 mM IPTG; spots on X-Gal plates and β-galactosidase activity against MUG; positive cutoff 4-fold greater than T18/T25

| Binder | binding |
| --- | --- |
| B1 | binds |
| B2 | binds |

Results are given in words; binding and its absence hold for the method and conditions named. A result given as binding can be weak or reduced; the word gives no strength. Where a sequence is shown, tags or fusion partners need not be part of it.
